Measurements as given in paper PMC6033466.
No constants are given. Whether binding was seen depends on the method and setting. In cells and extracts the contact can be indirect. Some entries that bind do so weakly or less than the wild type. Sequences can lack the tags named with a protein.

T1: Flag-USP8^C748A (UniProt Q80U87)
T1 sequence: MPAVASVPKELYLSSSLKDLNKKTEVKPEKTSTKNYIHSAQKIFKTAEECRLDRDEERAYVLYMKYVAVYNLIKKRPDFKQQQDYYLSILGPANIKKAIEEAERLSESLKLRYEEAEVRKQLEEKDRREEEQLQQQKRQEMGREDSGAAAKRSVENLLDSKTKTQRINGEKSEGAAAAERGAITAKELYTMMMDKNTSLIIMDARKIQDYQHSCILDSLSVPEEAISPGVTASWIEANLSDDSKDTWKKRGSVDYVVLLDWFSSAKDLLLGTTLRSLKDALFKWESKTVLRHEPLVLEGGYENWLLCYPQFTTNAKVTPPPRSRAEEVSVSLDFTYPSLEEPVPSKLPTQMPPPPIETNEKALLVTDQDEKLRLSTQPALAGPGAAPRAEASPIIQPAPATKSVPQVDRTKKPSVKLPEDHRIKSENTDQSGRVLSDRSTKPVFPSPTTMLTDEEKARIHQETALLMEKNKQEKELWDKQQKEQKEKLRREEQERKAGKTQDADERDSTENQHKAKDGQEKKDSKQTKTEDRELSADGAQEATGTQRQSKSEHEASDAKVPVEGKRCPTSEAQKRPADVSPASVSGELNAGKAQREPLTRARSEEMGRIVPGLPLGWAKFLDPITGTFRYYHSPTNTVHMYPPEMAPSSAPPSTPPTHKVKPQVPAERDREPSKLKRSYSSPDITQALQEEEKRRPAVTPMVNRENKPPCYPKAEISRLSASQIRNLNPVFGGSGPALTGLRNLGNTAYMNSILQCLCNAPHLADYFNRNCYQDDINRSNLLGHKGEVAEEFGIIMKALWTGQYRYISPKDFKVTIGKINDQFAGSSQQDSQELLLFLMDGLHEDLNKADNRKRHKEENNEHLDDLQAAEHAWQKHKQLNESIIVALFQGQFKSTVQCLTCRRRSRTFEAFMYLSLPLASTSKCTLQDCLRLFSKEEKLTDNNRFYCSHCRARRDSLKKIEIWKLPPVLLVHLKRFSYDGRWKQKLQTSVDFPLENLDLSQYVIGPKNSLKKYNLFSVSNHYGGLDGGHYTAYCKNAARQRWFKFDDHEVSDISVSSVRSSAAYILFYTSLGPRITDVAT

T2: Flag-USP8 (UniProt Q80U87)
T2 sequence: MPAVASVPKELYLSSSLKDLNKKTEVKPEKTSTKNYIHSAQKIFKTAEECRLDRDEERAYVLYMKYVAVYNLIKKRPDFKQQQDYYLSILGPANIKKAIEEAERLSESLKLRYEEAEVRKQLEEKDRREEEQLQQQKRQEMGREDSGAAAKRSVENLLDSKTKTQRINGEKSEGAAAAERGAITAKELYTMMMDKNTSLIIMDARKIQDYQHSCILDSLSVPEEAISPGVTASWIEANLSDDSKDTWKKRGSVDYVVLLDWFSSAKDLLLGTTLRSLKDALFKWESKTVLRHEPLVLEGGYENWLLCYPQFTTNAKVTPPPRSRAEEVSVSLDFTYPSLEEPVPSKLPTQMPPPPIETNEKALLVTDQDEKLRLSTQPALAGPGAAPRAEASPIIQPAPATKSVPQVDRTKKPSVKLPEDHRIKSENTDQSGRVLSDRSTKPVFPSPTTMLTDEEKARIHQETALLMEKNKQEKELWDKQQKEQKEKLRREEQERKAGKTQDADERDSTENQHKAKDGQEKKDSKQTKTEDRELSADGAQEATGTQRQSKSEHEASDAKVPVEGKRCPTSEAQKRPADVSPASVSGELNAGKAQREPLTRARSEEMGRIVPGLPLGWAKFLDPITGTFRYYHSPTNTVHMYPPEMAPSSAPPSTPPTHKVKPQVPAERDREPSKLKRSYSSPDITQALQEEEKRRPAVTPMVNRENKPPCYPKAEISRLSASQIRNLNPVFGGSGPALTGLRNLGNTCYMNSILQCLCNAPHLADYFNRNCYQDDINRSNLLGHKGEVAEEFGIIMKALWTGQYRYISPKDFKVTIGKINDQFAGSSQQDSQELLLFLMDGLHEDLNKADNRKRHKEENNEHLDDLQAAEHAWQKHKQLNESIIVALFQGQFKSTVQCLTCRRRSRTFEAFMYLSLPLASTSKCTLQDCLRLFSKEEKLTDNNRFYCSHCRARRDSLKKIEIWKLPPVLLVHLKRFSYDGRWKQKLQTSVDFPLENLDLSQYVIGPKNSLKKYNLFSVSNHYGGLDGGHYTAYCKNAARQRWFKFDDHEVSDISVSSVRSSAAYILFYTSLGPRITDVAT

T3: Myc-VN-USP8 (human) (UniProt P40818)
T3 sequence: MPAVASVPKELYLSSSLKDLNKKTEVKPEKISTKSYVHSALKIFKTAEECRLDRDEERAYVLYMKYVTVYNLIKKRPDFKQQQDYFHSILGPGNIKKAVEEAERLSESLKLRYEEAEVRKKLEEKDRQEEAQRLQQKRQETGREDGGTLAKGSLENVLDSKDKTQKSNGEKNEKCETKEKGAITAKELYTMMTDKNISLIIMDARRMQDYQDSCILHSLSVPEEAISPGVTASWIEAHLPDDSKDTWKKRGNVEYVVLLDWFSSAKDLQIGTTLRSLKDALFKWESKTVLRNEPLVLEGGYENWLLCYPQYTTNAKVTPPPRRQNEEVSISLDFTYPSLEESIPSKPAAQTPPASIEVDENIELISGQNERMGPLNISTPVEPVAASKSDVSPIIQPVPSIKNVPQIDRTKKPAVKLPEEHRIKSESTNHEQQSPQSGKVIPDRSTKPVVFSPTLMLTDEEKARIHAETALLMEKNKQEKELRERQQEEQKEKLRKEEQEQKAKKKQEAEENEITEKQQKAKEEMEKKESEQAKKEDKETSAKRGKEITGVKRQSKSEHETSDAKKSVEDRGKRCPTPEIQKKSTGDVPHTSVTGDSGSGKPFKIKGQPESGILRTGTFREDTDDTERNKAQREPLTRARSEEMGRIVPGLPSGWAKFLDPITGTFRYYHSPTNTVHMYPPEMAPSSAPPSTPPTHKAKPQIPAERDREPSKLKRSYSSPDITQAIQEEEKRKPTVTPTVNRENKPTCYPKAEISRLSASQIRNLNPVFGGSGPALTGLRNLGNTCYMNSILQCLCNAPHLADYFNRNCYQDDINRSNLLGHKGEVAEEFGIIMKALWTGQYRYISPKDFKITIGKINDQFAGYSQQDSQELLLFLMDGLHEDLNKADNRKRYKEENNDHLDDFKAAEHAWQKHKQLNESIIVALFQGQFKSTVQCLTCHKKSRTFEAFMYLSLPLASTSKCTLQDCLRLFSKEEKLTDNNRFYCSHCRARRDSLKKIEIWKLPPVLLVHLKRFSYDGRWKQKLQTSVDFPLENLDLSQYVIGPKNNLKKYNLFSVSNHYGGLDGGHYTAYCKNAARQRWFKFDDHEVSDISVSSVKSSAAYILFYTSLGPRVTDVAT


Tests used:
Flag-USP8^C748A = biological target: T1, Flag-USP8^C748A; assay: co-IP; HEK293T cells co-transfected with GFP-CHMP1B and Flag-USP8 constructs; lysates immunoprecipitated with anti-GFP or anti-Flag antibodies, immunoblot with anti-GFP or anti-Flag
Flag-USP8 = biological target: T2, Flag-USP8; assay: as above
Myc-VN-USP8 (human) = biological target: T3, Myc-VN-USP8 (human); assay: split reporter; Venus complementation; fixed HeLa cells co-transfected with Myc-VN-USP8 and HA-VC-CHMP1B constructs; Venus spots counted per Myc and HA positive cell

| binding (Flag-USP8^C748A) | binding (Flag-USP8) | binding (Myc-VN-USP8 (human)) | Binder |
| --- | --- | --- | --- |
| binds | binds | – | GFP-CHMP1B (full length) (protein, UniProt Q7LBR1 1-199) MSNMEKHLFNLKFAAKELSRSAKKCDKEEKAEKAKIKKAIQKGNMEVARIHAENAIRQKNQAVNFLRMSARVDAVAARVQTAVTMGKVTKSMAGVVKSMDATLKTMNLEKISALMDKFEHQFETLDVQTQQMEDTMSSTTTLTTPQNQVDMLLQEMADEAGLDLNMELPQGQTGSVGTSVASAEQDELSQRLARLRDQV |
| – | – | binds | HA-VC-CHMP1B (full length) (protein, UniProt Q7LBR1 1-199) MSNMEKHLFNLKFAAKELSRSAKKCDKEEKAEKAKIKKAIQKGNMEVARIHAENAIRQKNQAVNFLRMSARVDAVAARVQTAVTMGKVTKSMAGVVKSMDATLKTMNLEKISALMDKFEHQFETLDVQTQQMEDTMSSTTTLTTPQNQVDMLLQEMADEAGLDLNMELPQGQTGSVGTSVASAEQDELSQRLARLRDQV |
| – | binds | – | GFP-CHMP1B α-helices 4, 5 and 6 (residues 105 to 199) (domain or fragment, UniProt Q7LBR1 105-199) TMNLEKISALMDKFEHQFETLDVQTQQMEDTMSSTTTLTTPQNQVDMLLQEMADEAGLDLNMELPQGQTGSVGTSVASAEQDELSQRLARLRDQV |
